Primary screen of a compound library

Mtb cholesterol medium: 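Phenotypic screen: M. tuberculosis growth, cholesterol and DPPC medium, 4 days; the read-out is not stated. Tested at 50 µM. The record gives no direction; compounds that gave an IC50 in retests scored well above the rest, so higher reads as more growth inhibition. About 69,000 compounds were tested under these conditions; 0.54% (about 370) showed 50% or more at least once.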
Mtb glucose medium: 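Growth of Mycobacterium tuberculosis over 3 days (7H9 medium with glucose and tyloxapol); the read-out is not stated. Concentration: 50 µM. The record gives no direction; compounds that gave an IC50 in retests scored well above the rest, so higher reads as more growth inhibition. Size under these conditions: about 69,000 compounds, about 760 of them at 50% or above in at least one test.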

Each number is a percent effect as filed. How 0% and 100% were set is not recorded. Most values in the screen are low, and negative values occur. This is an unselected part of the compounds tested. Two or more numbers in one place are separate tests of the same structure; such repeats can differ widely.

SMILES	Mtb cholesterol medium	Mtb glucose medium
Cn1ccc(NC(=O)NC2CCCN(c3ccccc3Cl)C2=O)n1 (centres unmarked)	2.103	9.836
CC(C)c1nnc2sc(CC3CN(Cc4ccccc4)CCO3)nn12 (centres unmarked)	-17.97	0.03591
O=C(O)C(F)(F)F.O=C(O)C(F)(F)F.O=C(O)C(F)(F)F.[H][C@@]12CN(Cc3ccoc3)CCO[C@]1([H])CN(Cc1cccc(C)n1)C2	4.915	-10.62 and -3.923
CC(C)OCCCN(CC(=O)N1CCNCC1)C(=O)c1ccc(F)cc1.O=C(O)C(F)(F)F	-2.274	12.48
CCn1nc2c(cc1=O)CN(c1ncnc3sccc13)CC2	-2.727	5.874
CCC(=O)NC(CC)c1ccccc1C (centres unmarked)	8.554	10.2
N#Cc1cccc(OCCN2CCCC2C(=O)NCC(F)(F)F)c1 (centres unmarked)	-7.657	11.42
CCN(CC(C)C#N)C(=O)CNc1ccc(C(N)=O)c(C)c1 (centres unmarked)	-11.53 and 2.171	9.673
O=C1CCSCC(C(=O)N2CCCCC2)N1 (centres unmarked)	2.506	-12.27
Cc1ccc(C(C)NCc2cn(CCC(N)=O)c3ccccc23)cc1C (centres unmarked)	8.548	17.5
Cc1ccc(CN2CCC(NC(=O)c3scnc3C)CC2)cc1	0.3456	-1.901
CCN(CCN1CCCCCC1)C(=O)c1cnc(-c2cccnc2)nc1	12.2	3.817
O=C(Cn1cc(-n2cccc2)cn1)NCC(F)(F)F	-10.65	2.108
CC(O)CN1CC(C)(C)CN(C(=O)CCc2ccccc2)CC1=O (centres unmarked)	8.489	14.68
COCCCN(C)[C@@H]1c2ccccc2C2(CCNCC2)[C@H]1O	8.943	7.074
O=C(N1CCCC1)N1CCOCC2(CCN(Cc3cccs3)C2)C1.O=C(O)C(F)(F)F (centres unmarked)	-12.42	-11.09
CC(C)CNC(=O)N1CCC2(CC1)OC(C(N)=O)Cn1ccnc12.O=C(O)C(F)(F)F (centres unmarked)	-4.054	-5.366
CS(=O)(=O)N1CCC(C(=O)N2CCOc3ccccc32)CC1	12.5	4.929 and -9.687
Cc1csc(CN(C)C2CCN(c3sccc3C#N)C2=O)n1 (centres unmarked)	-16.33	-48.48
CC(C)(NC(=O)c1ccc(-c2ccc(F)cc2)s1)C(N)=O	3.957	6.402 and -3.678
CN1C(=O)CO[C@H](c2ccc(NC(=O)Nc3ccccc3)cc2)[C@H]1CO	-25.09	-39.24 and -4.837
CS(=O)(=O)NCCCN1CCCC1c1cccc(Br)c1 (centres unmarked)	-12.85	-5.466
Cc1ccc(NC(=O)Nc2c[nH]c(=O)[nH]c2=O)c(C)c1	-15.65	-23.37
O=C(O)C(F)(F)F.[H][C@@]12CCN(Cc3ccccc3F)C[C@]1(C(=O)N1CCOCC1)CCO2	2.728	-3.061
CC(=O)N1CCCC(c2ccc(Nc3nc(C)cc(C)n3)cn2)C1 (centres unmarked)	-13.59	9.204
COc1cc(C)sc1C(=O)N1CCCCC1c1ccccn1 (centres unmarked)	10.43	3.712
Cc1nnc(C2CCN(C(=O)c3ccsc3)CC2)s1	-17.91	-1.262 and -45.55
Cc1ccc2nc(C)c(C)c(C(=O)N3CCN(c4nccs4)CC3)c2c1	0.4428 and 4.006	-0.5617
[H][C@@]12CN(Cc3ccsc3)CCO[C@]1([H])CN(Cc1cc(C)on1)C2	-8.429	2.702 and 3.896
O=S(=O)(CCCN1CCc2c(ncn2C2CC2)C1)c1ccccc1	-41.73	-8.817
Cc1ccc(CN(C)Cc2cnc(N3CCOCC3)s2)o1	-8.901	1.294 and -4.768
COc1cc2c(nn1)CCN(Cc1noc(-c3ccccc3)n1)C2	20.45	8.453 and 1.146
CC(C)CC(NC(=O)c1ccco1)c1nc2cccnc2n1C (centres unmarked)	9.277	28.51
CC(C)NC(=O)c1cc2c(s1)CCN2c1ncccn1	16.97	35.44
Cc1ccc2c(c1)OC1(NC2=O)C(=O)N(C)c2ccccc21 (centres unmarked)	-31.4	-12.86
O=C1NCCCC12CCN(Cc1ccc(-c3ccccc3)s1)C2 (centres unmarked)	3.854	5.943
CNc1ccccc1C(=O)N(C)CCc1ccccc1	-4.947	-16.19
CCN(C)CC1CCN(C(=O)Nc2ccc(-c3cc[nH]n3)cc2)C1 (centres unmarked)	-1.37	-33.61
CC(C)c1nc(C2CCCN(C(=O)CN3CCN(C)CC3)C2)no1 (centres unmarked)	-14.56	4.325 and -11.82
CN(C(=O)c1cccc(OCC(F)F)n1)c1ccc2c(c1)CCO2	-16.38	-23.44
CCc1c(C)nn(CCNC(=O)C2CCCN(C(=O)N(C)C)C2)c1C (centres unmarked)	-17.6	-10.84
O=C(O)C(F)(F)F.O=C(O)C(F)(F)F.[H][C@@]12C[C@@H](Oc3cncnc3)CN1CCN(Cc1csc(C)n1)C2	-6.993	1.305
[H][C@]12CC[C@]([H])(CN(Cc3[nH]cnc3C)C1)N(Cc1ccccc1SC)C2	24.55	12.13 and -31.93
COc1ncccc1C(=O)NC1(c2cccc(F)c2)CCOCC1	-0.7393	-18.61 and 6.733
Cc1cc(O)cc2c(=O)oc(CC(C)O)cc12 (centres unmarked)	0.8541	2.599 and 9.694
COCCN(Cc1cccc(O)c1)Cc1ccccc1F	-8.787	-18.25
COc1cc(N2CCC3(CCN(Cc4csc(C)n4)C3=O)C2)ncn1.O=C(O)C(F)(F)F (centres unmarked)	-7.801	32.79
CNC(=O)C1Cc2ccccc2CN1CCCc1ccccc1 (centres unmarked)	-13.81	0.1325
CN1CCOC(CNCc2coc(-c3ccccc3)n2)C1 (centres unmarked)	-11.8	0.5129
Br.Cn1nccc1CN1CCOC(c2cccc(-c3cncnc3)n2)C1 (centres unmarked)	-3.687 and 4.844	12.04
c1cc(CN2CCCn3nnc(COCC4CC4)c3C2)ccn1	-5.127 and -11.3	-14.63
[H][C@@]12CN(CC(C)C)C[C@]1([H])OCC(=O)N2Cc1nccn1C	7.347	-4.132 and -19.64
CCC[C@@H]1CN(C(=O)c2ccccc2C(C)=O)C[C@H]1N(C)C	-27.95	-10.87
O=S(=O)(CCCc1ccccc1)Cc1nnnn1C1CC1	-11.05	15.41
COCCN1CCC12CCN(C(=O)c1ccc(C)nc1)C2.O=C(O)C(F)(F)F (centres unmarked)	-12.33	29.57
CCC(C)NC(=O)Nc1ccc(CN2CCOC2=O)cc1 (centres unmarked)	-15.35	-10.92 and -16.92
CN(C)CCOc1ccccc1N1CCN(C(=O)c2ccoc2)CC1	6.398	20.52
O=C1CN(c2ccc(CNC(=O)NCC3CCOC3)cc2)CCN1 (centres unmarked)	15.11	6.313
CC(NC(=O)Nc1nccs1)c1cccnc1 (centres unmarked)	-12.28	-6.133
CC(C)C(=O)N1CCCc2c(cnn2-c2ccccc2)C1	2.974	17.61
Cc1nn(C)c(C)c1CCC(=O)N1CCCC(n2cccn2)C1 (centres unmarked)	-25.16	-21.15
CC[C@H]1CN(C(=O)C2CC2)CC[C@H]1CC(=O)NCCN1CCOCC1	13.66	-15.72 and 4.325
COCCN1CCC(c2nc3ccc(NC4CCC4)cn3n2)CC1.O=C(O)C(F)(F)F	-17.92	6.461
Cc1nnc(C(NS(=O)(=O)c2cc(F)c(C)cc2F)C(C)C)[nH]1 (centres unmarked)	4.685	-7.051
CCC(=O)NCC(=O)NCC1CCN(c2cc(Cl)ccc2C)C1 (centres unmarked)	21.89	21.27
O=C(O)C(F)(F)F.O=C(O)C(F)(F)F.[H][C@@]12COC[C@]1([H])[C@@H](OCc1cccnc1)CN2C(=O)Cc1ccccn1	-19.92	-36.13
CC(C)(C)n1cc(NC(=O)C2CN(Cc3ccccc3)CCO2)cn1 (centres unmarked)	-3.331 and 49.52	13.32
CNC(=O)C1(c2cnccn2)CCCN1C(=O)c1cccc(C)n1 (centres unmarked)	-3.544	-26.02
Cc1nc(C)n(CCNC(=O)C(C)n2ccnc2C(C)C)n1 (centres unmarked)	-18.77	-23.78
O=C(CCCOc1ccccc1F)Nc1cc[nH]n1	-4.076 and -11.01	-13.4
CC(C)(C)C(=O)N[C@H]1CC[C@H](Nc2nccc(-c3ccncc3)n2)C1	-7.36	-6.579
CCc1nccn1C1CCCN(C(=O)c2ccnc(C)n2)C1 (centres unmarked)	-2.737	19.72
CC(CCNC(=O)N(C)CC1CCOCC1)N1CCCCC1 (centres unmarked)	-16.61	-20.84
CC(=O)N1CCN(c2cc(N3CCOCC3)cnn2)CC1	-7.843	4.515
CC(C)(C)c1ncc(C(=O)NCCNS(C)(=O)=O)s1	0.9019	-13.9
CCOc1ncccc1CNC(=O)c1csc(Br)c1	-5.705	23.69
Cc1cnc2c(S(=O)(=O)NC(=O)C(C)OCC3CC3)cccc2c1 (centres unmarked)	-7.657	-5.958
CC(C)N1CCCC(c2cc(C(F)(F)F)nc3nccn23)C1 (centres unmarked)	3.819 and 18.01	-5.143
COCC(O)CNC(=O)c1coc(COc2cccc(F)c2)n1 (centres unmarked)	8.629 and 5.234	5.503 and -0.8002

The values are deposited in ChEMBL (CHEMBL3988442, “University of Dundee, Small-Polar-MMV Screening Library” (2021)).